# Data from PMC7819943, “Rice protein-binding microarrays: a tool to detect cis-acting elements near promoter regions in rice”.
# The list shows a part of the results.
# Target: T1, OsSMF1 (Oryza sativa, UniProt Q6ZLB0 1-436)
# T1 sequence: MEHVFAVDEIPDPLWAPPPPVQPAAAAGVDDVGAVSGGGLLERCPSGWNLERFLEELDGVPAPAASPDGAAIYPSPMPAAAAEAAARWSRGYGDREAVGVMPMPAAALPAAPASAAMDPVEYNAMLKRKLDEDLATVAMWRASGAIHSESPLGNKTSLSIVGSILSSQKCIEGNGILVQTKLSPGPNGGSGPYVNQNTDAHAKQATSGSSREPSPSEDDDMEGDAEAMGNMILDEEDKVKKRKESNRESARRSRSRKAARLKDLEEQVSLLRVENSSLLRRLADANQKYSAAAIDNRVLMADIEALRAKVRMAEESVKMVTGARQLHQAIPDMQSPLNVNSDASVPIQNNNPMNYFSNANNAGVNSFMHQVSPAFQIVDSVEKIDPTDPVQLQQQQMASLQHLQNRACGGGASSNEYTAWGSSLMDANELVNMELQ
# Test: protein-binding microarray (RPBM); PBS, 2% BSA, 51.3 ng/ul salmon testes DNA, 50 uM zinc acetate, 200 nM TF, 25 C, 1 h; high values mean tight binding
# Details: protein: recombinant; tags: N-terminal polyhistidine and DsRed monomer fusion (pET32a); chain copies: 2; label: CyDye5-dUTP incorporated in the synthesized complementary strand; 3' TTTTT single-stranded linker to array surface; dsDNA, one strand shown
# Summary of the method: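 The binding signal for each feature is its fluorescence intensity in arbitrary units. An Axon 4000B scanner was used to read a custom Agilent array that had been made double-stranded with Cy5-dUTP primer extension, blocked with 2% BSA, incubated at 25 °C for 1 h with 200 nM protein in PBS, 2% BSA, salmon testes DNA and 50 µM zinc acetate, and washed. The protein was an N-terminal polyhistidine–DsRed transcription factor fusion from E. coli BL21-CodonPlus, purified on Ni–NTA.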
row,Sequence,binding signal
1,AAATCTCTATCCTGAGTGCCAGTGGTTTGGTGTTGAACATCGGAGTCACCTAGTGCAG,14900 fluorescence intensity (a.u.)
2,TGTCGTCGCGATACGACAACGTGGGCCGTCCACGTGTCCCCGGAGTCACCTAGTGCAG,20400 fluorescence intensity (a.u.)
3,GCGCGGCGATCACCGCTGGGGCTTTGTGGCGTGGAGACCGCGGAGTCACCTAGTGCAG,3400 fluorescence intensity (a.u.)
4,CCACCGCCGCTTCGCTTCACTCTCGCGTTCGAGTCACACACGGAGTCACCTAGTGCAG,3560 fluorescence intensity (a.u.)
5,CGCCGGCGAGCGCCATCCTCTCCTCCGTCTGATTCGTCCCCGGAGTCACCTAGTGCAG,4430 fluorescence intensity (a.u.)
6,GTCGGCCGAGCCGCCCCTCGATCTAGGGTGGCCGGAAGAGCGGAGTCACCTAGTGCAG,3860 fluorescence intensity (a.u.)
7,TTGGGCGGCGGTGCGGGGAGGCTGAGGGGCGGCGCCGGCGCGGAGTCACCTAGTGCAG,3580 fluorescence intensity (a.u.)
8,GAAAGGTATTTGCTAGCTCCATCTGTCATTACACGGTGGACGGAGTCACCTAGTGCAG,4290 fluorescence intensity (a.u.)
9,ATGGCCACGCCTCCACCCGTCACTTCGCTGCATCGCTGACCGGAGTCACCTAGTGCAG,3830 fluorescence intensity (a.u.)
10,CTGCCTGAGCTCACTTGACCTTACCACATGGGTTCAGATTCGGAGTCACCTAGTGCAG,3310 fluorescence intensity (a.u.)
11,AAACATCTGCTAATGACGGATTAATTAGGCTTAAGTCTCGCGGAGTCACCTAGTGCAG,3210 fluorescence intensity (a.u.)
12,AAAAGTGGCAAACAATTATGTGCAAAACTAAAAGGGGCATCGGAGTCACCTAGTGCAG,33300 fluorescence intensity (a.u.)
13,ATTTTCCTATTTGTAATGACATGGATTTAATTTACCTTAACGGAGTCACCTAGTGCAG,4620 fluorescence intensity (a.u.)
14,AAAGCCGTTAAATCTAAATCCTGGAAAATTCGCTCACATGCGGAGTCACCTAGTGCAG,3510 fluorescence intensity (a.u.)
15,TCTTAATTACACGTGAGCTATATTTGTACTGCCTTGGTCCCGGAGTCACCTAGTGCAG,3500 fluorescence intensity (a.u.)
16,TGTTTGTGTTCTCACTGGAAAATACAAGCTCTAGTGCAGTCGGAGTCACCTAGTGCAG,6300 fluorescence intensity (a.u.)
17,TGGCTATACTATTGAACTTGCTCTCGTGGGACCCACATACCGGAGTCACCTAGTGCAG,3680 fluorescence intensity (a.u.)
18,CATGCTTGCATCACGCCGACGTAAGCACATATCCTCCTCGCGGAGTCACCTAGTGCAG,9470 fluorescence intensity (a.u.)
19,ACGGTCTTCAACTCCCAGATCGCCGCATCACCCGCGCCTGCGGAGTCACCTAGTGCAG,3140 fluorescence intensity (a.u.)
20,AAAATATATTAACTGGAATTCCAAGTGTATTACCTCATGTCGGAGTCACCTAGTGCAG,3250 fluorescence intensity (a.u.)
21,GTTGCCATGTGATGTGTGTGATGCGAAGCCGAAGCCTGTGCGGAGTCACCTAGTGCAG,3500 fluorescence intensity (a.u.)

# Two entries picked at random from those above:
row,Sequence,binding signal
13,ATTTTCCTATTTGTAATGACATGGATTTAATTTACCTTAACGGAGTCACCTAGTGCAG,4620 fluorescence intensity (a.u.)
1,AAATCTCTATCCTGAGTGCCAGTGGTTTGGTGTTGAACATCGGAGTCACCTAGTGCAG,14900 fluorescence intensity (a.u.)

# Following part

row,Sequence,binding signal
1,TTGCTTCATCGACACGTATACTTCTGAGCTCATGGTCACGCGGAGTCACCTAGTGCAG,6070 fluorescence intensity (a.u.)
2,AGAGGAGGTGGTGATCGCCGGTGATCGCCGACAACCAACGCGGAGTCACCTAGTGCAG,17000 fluorescence intensity (a.u.)
3,AGGAGTAGCACAGAGTGTGAGTAGACGCAATAAGCCCTGCCGGAGTCACCTAGTGCAG,3240 fluorescence intensity (a.u.)
4,CACGCGGTTGAGCTCCACGTCGCGCGCATTGTCGCACTCCCGGAGTCACCTAGTGCAG,3950 fluorescence intensity (a.u.)
5,AGCGAGAGAAGATGCTGACGTGGCATCATGACATGTGGGGCGGAGTCACCTAGTGCAG,19300 fluorescence intensity (a.u.)
6,GGGACATGACAATGTGATAGCTGACTTGGAAGATAGACGCCGGAGTCACCTAGTGCAG,4420 fluorescence intensity (a.u.)
7,AGAAGACGATCTCCTGAGACAAATTGCCAAAATTAAAGAACGGAGTCACCTAGTGCAG,4830 fluorescence intensity (a.u.)
8,ACGCGCTCGCCTCGCGTCATCGGATCAAATGGTGGAGGCGCGGAGTCACCTAGTGCAG,3970 fluorescence intensity (a.u.)
9,GCAGCCCACCAGCGCGCGCTGACGTGTCGCGACGCGGCAGCGGAGTCACCTAGTGCAG,9170 fluorescence intensity (a.u.)
10,CCCTTAACTTGATCCCTTGGTAGTATTATTTCCAGTTTTGCGGAGTCACCTAGTGCAG,3820 fluorescence intensity (a.u.)
11,CGTAGCTTGACGTGGCGCTCACGTGGCAACTATATCTCAGCGGAGTCACCTAGTGCAG,32700 fluorescence intensity (a.u.)
12,GTTTTAGAAGCATATGACACGAATAATTTGGTGACGATCTCGGAGTCACCTAGTGCAG,3180 fluorescence intensity (a.u.)
13,CATCTCTCGCTCGCTCGCTCGCTCGCCGCTACGCCTCACGCGGAGTCACCTAGTGCAG,3270 fluorescence intensity (a.u.)
14,TTAGGTAAGATTACAATGACAGCTAGAAGATTCCCCGCGCCGGAGTCACCTAGTGCAG,3140 fluorescence intensity (a.u.)
15,TTAGTTCACCCATCTTGCCAATGCTGTCATCGCCACAGCTCGGAGTCACCTAGTGCAG,3310 fluorescence intensity (a.u.)
16,ACGCTATTCACTACTTCATGTGACGCATGCATAGAATGATCGGAGTCACCTAGTGCAG,3720 fluorescence intensity (a.u.)
17,GGATACTAATTAGATTGGAAGTATATTTACACTCAGTCACCGGAGTCACCTAGTGCAG,3180 fluorescence intensity (a.u.)
18,GGCGGCCAGATCCGGGGCTGGGGAGGCGACGGCGGCGGGGCGGAGTCACCTAGTGCAG,4020 fluorescence intensity (a.u.)
19,GTGTGAGTCGAGTCGGTGCTGTGCTGGAGTGCTGGCAACGCGGAGTCACCTAGTGCAG,3870 fluorescence intensity (a.u.)
20,GTACCATGGGTTTGCGTGAACCCGCACACGAACCACGTGGCGGAGTCACCTAGTGCAG,9170 fluorescence intensity (a.u.)
21,TTTCTGACATGTCACTTGTTTATGTATTAGTTGCATTGTACGGAGTCACCTAGTGCAG,5270 fluorescence intensity (a.u.)
